From PubChem BioAssay AID504847 (National Center for Advancing Translational Sciences (NCATS), 2011)
“And” between values parts separate entries of the source, which are not always exact repeats. Equal entries are not always repeated. In all, about 400,000 compounds went through this assay and about 3,700 (0.93%) were called active. The inconclusive results got no clear call from the source; some entries with a clear call stand among them for comparison. Calls come from the whole dose curve; as a rule, active = well fitted inhibition curve with a large enough effect; inconclusive = small, poorly fitted or top-dose-only effect, or another doubt; inactive = no such curve, though single readings can be large or run the other way. Potencies beside an inconclusive call are fits to weak or partial responses and may not hold up.

Amino acid sequences for entries named in this document (tags omitted).
UniProt P11473, whole entry, looked up: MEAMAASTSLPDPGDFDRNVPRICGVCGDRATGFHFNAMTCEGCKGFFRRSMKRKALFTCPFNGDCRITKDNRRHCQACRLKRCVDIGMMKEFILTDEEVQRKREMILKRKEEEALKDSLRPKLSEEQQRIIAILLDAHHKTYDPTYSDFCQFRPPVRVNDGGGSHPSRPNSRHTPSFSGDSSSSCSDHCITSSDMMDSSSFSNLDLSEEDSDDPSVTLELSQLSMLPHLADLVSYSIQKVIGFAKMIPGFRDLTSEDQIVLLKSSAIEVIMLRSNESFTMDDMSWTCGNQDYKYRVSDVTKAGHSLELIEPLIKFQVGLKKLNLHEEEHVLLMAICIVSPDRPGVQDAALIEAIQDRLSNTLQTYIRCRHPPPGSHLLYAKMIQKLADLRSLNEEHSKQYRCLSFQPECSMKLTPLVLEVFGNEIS

target: Vitamin D3 receptor (Homo sapiens) (UniProt P11473); test: Inhibitors of the vitamin D receptor (VDR): qHTS; conditions: VDR-SRC2-3 peptide fluorescence polarization, 2 h; max response, negative = inhibition: stronger effect = lower value
How it was run: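 Measured by FP: displacement of SRC2-3 coactivator peptide from VDR by library compounds, following a two-hour ambient incubation.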
% is set by controls: 0 for no effect and ±100 for the full control effect; potency is the fitted concentration of half-maximal effect.

Potency, active:
CCCS(=O)(=O)c1ncc(Cl)c(C(=O)Nc2ccc(S(=O)(=O)Nc3ncccn3)cc2)n1 22.4 µM, Fc1ccc(Nc2ncncc2-c2ccoc2)cc1 31.6 µM, Cc1ccc(CN(C)C(=O)c2cc(COc3cccc(C(F)(F)F)c3)on2)o1 89.1 µM, O=C(O)c1cc(N=Nc2ccc(-c3ccc(N=Nc4ccc(O)c(C(=O)O)c4)cc3)cc2)ccc1O 12.6 µM

Potency, inconclusive:
Cc1ccc(N2C(=O)[C@@H]3[C@H](C2=O)C2c4ccccc4C=CN2[C@@H]3C(=O)c2ccco2)cc1 (some centres undefined) 39.8 µM [inhibitor, single point], CCOCc1nnc(NC(=O)c2c(-c3ccccc3)noc2C)s1 89.1 µM [inhibitor, single point], O=C1Nc2ccccc2C1=Nc1ccc(-c2nnc3n2CCCCC3)cc1 8.91 µM [inhibitor, full curve, poor fit], COc1ccc2[nH]cc(CCNc3cc(-c4ccccc4C)ncn3)c2c1 35.5 µM [inhibitor, partial curve, poor fit], CC1CC2=C(NC(=S)NC2c2ccccc2F)/C(=C/c2ccccc2F)C1 (centres undefined) 100 µM [inhibitor, partial curve, poor fit], CC1=C(C(=O)OCC(C)C)C(c2cccs2)NC(=S)N1 (centres undefined) 89.1 µM [inhibitor, single point], COc1ccc2cc(C(N)=O)c(=Nc3ccc(C)cc3)oc2c1 89.1 µM [inhibitor, single point], NC(=O)C1CCN(C2=C(NS(=O)(=O)c3ccc(Br)cc3)C(=O)c3ccccc3C2=O)CC1 25.1 µM [inhibitor, single point], CC1CN2C(c3ccc([N+](=O)[O-])cc3)=CSC2=N1 (centres undefined) 89.1 µM [inhibitor, single point], C=CCOC(=O)C(C#N)c1nc2ccccc2nc1N1CCN(Cc2ccccc2)CC1 (centres undefined) 89.1 µM [inhibitor, single point], COc1ccccc1CC(=O)N(CCC1=CCCCC1)c1c(N)n(Cc2ccccc2)c(=O)[nH]c1=O 89.1 µM [inhibitor, single point], C[C@H]1CCC/C=C/[C@@H]2C[C@H](O)C[C@H]2[C@H](O)[C@H](S(=O)c2ccc(O)cc2)CC(=O)O1 (some centres undefined) 79.4 µM [inhibitor, single point], Cc1ccc(S(=O)(=O)N/N=C2/CCCCC2C2CCCCC2)cc1[N+](=O)[O-] (centres undefined) 79.4 µM [inhibitor, partial curve, poor fit], C/C(Cn1nnc2ccccc21)=N\OC(=O)c1ccccc1C 100 µM [inhibitor, single point], Cc1ccccc1OCC(=O)NCCCNC(=O)c1cccnc1 25.1 µM [inhibitor, partial curve, poor fit], COc1ccccc1S(=O)(=O)Cc1ccc(C(=O)NCCN(C)C)o1 100 µM [inhibitor, partial curve, poor fit], CCCCC1=CC2=C(OC(C)=O)C(=O)C(C)(OC(=O)c3ccco3)C(=O)C2=CO1 (centres undefined) 35.5 µM [inhibitor, full curve], O=C(CN(Cc1ccco1)C(=O)c1ccc([N+](=O)[O-])cc1)Nc1ccccc1C(F)(F)F 89.1 µM [inhibitor, partial curve, poor fit], COc1cc2c(cc1OC)/C(=C/c1ccc(Br)cc1)C(=O)OC2 50.1 µM [inhibitor, partial curve, poor fit], O=C(CN1C(=O)NC2(CCCCCC2)C1=O)c1ccc(OC(F)F)cc1OC(F)F 89.1 µM [inhibitor, partial curve, poor fit], NNc1nc2cccnc2n(CCNc2ncc(C(F)(F)F)cc2Cl)c1=O 70.8 µM [inhibitor, partial curve, poor fit], CC(=O)Nc1ccc(NC(=O)CSc2nc3ccccc3nc2N2CCOCC2)cc1 89.1 µM [inhibitor, partial curve, poor fit], CCN(CC)c1nc2c(c(=O)n(C)c(=O)n2C)n1CCCc1ccccc1 100 µM [inhibitor, single point], CCN(CC(=O)NCc1cccs1)C(=O)c1cc(Br)ccc1O 100 µM [inhibitor, single point], CC(C)Cn1c(N)c(C(=O)COC(=O)c2cc(-c3ccco3)nc3ccccc23)c(=O)n(C)c1=O 56.2 µM [inhibitor, partial curve, poor fit], CC1=NN(c2ccc(C)cc2C)C(=O)C1C(c1cccc(O)c1)C1C(=O)N(c2ccc(C)cc2C)N=C1C (centres undefined) 70.8 µM [inhibitor, partial curve], CC(C)(C)c1cc(C2=CSC3=NCCN23)cc(C(C)(C)C)c1O 79.4 µM [inhibitor, partial curve, poor fit], CCCCN(CCCC)S(=O)(=O)c1ccc(N2CCCC2=O)c([N+](=O)[O-])c1 10 µM [inhibitor, partial curve, poor fit], CC1CC1C(=O)OCC(=O)Nc1cccc([N+](=O)[O-])c1 (centres undefined) 70.8 µM [inhibitor, partial curve], Cc1cc(C)c(OCCNC(=O)c2ccccc2Sc2ccccc2C#N)c(C)c1 39.8 µM [inhibitor, partial curve, poor fit], N#Cc1cnc(Sc2ccccc2)nc1 79.4 µM [inhibitor, single point], COc1ccc(/C=C2\C(=O)ON=C2c2ccccc2)cc1 39.8 µM [inhibitor, single point], COc1ccc(-c2cc(C(F)(F)F)nc(S(=O)(=O)CCCC(=O)Nc3cccc(O)c3)n2)cc1OC 79.4 µM [inhibitor, partial curve, poor fit] and 56.2 µM [inhibitor, partial curve, poor fit], CS(=O)(=O)C1=NSC2=NC(=O)/C(=C\c3cccn3-c3ccc(Cl)cc3)C(=N)N21 89.1 µM [inhibitor, single point], Cc1onc(-c2ccccc2)c1C(=O)Nc1nncs1 35.5 µM [inhibitor, partial curve, poor fit], c1ccc2c(NC3CC3)nc(-c3ccoc3)nc2c1 39.8 µM [inhibitor, partial curve], Nc1nnc(CC(=O)N/N=C/c2cc([N+](=O)[O-])cc(Br)c2O)s1 89.1 µM [inhibitor, single point], COC(=O)c1ccccc1NC(=S)N1CCN(C2CCCCC2)CC1 89.1 µM [inhibitor, partial curve, poor fit], S=C(NCCc1ccc(Cl)cc1)Nc1ccc(Cl)cc1Cl 89.1 µM [inhibitor, single point], Cc1ccc2cc(C=C(C#N)C#N)c(N3CCCCC3)nc2c1 56.2 µM [inhibitor, partial curve, poor fit]

Max response, negative = inhibition, inactive:
CCCc1ccc(C2Sc3ccccc3NC3=C2C(=O)c2ccccc23)cc1 (centres undefined) -10.5%, COc1cc2[nH]c(=S)nc(NCc3ccc(C)cc3)c2cc1OC -5.8%, O=C(c1ccccc1Br)N1CCN(Cc2ccc3c(c2)OCO3)CC1 -1.79%, CCN(CC)CCN(C(=O)CCS(=O)(=O)c1ccccc1)c1nc2cc3c(cc2s1)OCO3 -10.9%, COc1ccc(-c2noc(CSc3nnc(-c4ccncc4)n3-c3ccc(C)cc3)n2)cc1OC 10.6%, C/C=C1\COC(C(=O)NCc2cccc(OC)c2OC)(C(F)(F)F)C=C1C=C(C)C (centres undefined) -13.9%, CCOc1ccc(Nc2nc3cc(S(=O)(=O)CC)ccc3o2)cc1 16.6%, CC(=O)OC(C[N+]1(C)CCCCCC1)c1ccccc1 (centres undefined) -13.2%, CCOc1cc(N2CCOCC2)c(OCC)cc1NC(=O)CSc1cccc[n+]1[O-] 0.65%, Cc1ccc2c(c1)c(N=NC(N)=S)c(O)n2Cc1ccccc1 -10.8%, CC(C)(C)NC(=S)N1CCC(C(=O)c2ccc(Cl)cc2)CC1 12.1%, Cc1ccc(NC(=O)/C=C/c2ccc(C)o2)c(C)c1 -8.99%, COCCN(C(C)=O)c1nnc(-c2ccccn2)s1 18%, CCc1ccc(NCc2cc3cc4c(cc3n(CC(=O)Nc3ccc(C)cc3)c2=O)OCO4)cc1 5.3%, COC(=O)[C@H](COC(C)(C)C)NC(=O)O[C@@H]1Cc2cc(OC)ccc2O[C@H]1c1cccc(OC)c1 4.97%, Cc1ccc(N2C(=O)Nc3ccccc3C2(O)C(=O)NCCCOC(C)C)cc1C (centres undefined) 6.45%, O=C(NC1CCCCC1)c1ccc(Cn2c(SCc3ccccc3F)nc3cccnc32)cc1 -9.23%, Cn1c(=O)c2c(nc(NCCO)n2CCc2ccccc2)n(C)c1=O -4.18%, Clc1cc2cccnc2c2ccccc12 -10.5%, CC1=C(c2ccc(C)c(C)c2)S(=O)(=O)N(Cc2ccc(C(=O)NCc3cccc(C)c3)cc2)C1=O 0.364%
